From the supplement of paper PMC12067093, “Discovery and optimisation of a covalent ligand for TRIM25 and its application to targeted protein ubiquitination” (Chemical Science, 2025) come the findings set out here.

For the test, the target named is INTS9_Q9NV88_637_GHIVLLQEAETLIQIEEDSTHIICDNDEMLR (UniProt Q9NV88). Nature of the test: probe-labelled cysteine peptide fold change vs DMSO (competition) (log2 fold change); higher = less target engagement (more negative = stronger competition). The settings on record: THP-1, incubation time: 4 h.

The list shows a part of the results.
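Note: competitive chemoproteomic profiling in live THP-1 cells with an iodoacetamide desthiobiotin (IA-DTB) probe, comparing probe-labelled peptide intensities in compound-treated cells against DMSO-treated controls.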

Regarding `CC1Cc2ccccc2N1C(=O)C1CCCN(C(=O)CCl)C1` (mixture of isomers) [TRIM25 ligand 11 (diastereomer mixture)], the “probe-labelled cysteine peptide fold change” value runs as follows: (10 µM) -0.111; (50 µM) -0.196.
